Source: paper PMC12222587, “A2B adenosine receptor-triggered intracellular calcium mobilization: Cell type-dependent involvement of Gi, Gq, Gs proteins and protein kinase C” (Purinergic Signalling, 2025)

Test system: HEK293 cells

## COc1ccc(CC(C)NCC(O)c2ccc(O)c(NC=O)c2)cc1 (stereo not shown) [formoterol]
  Agonist-triggered Ca2+ increase: not able to observe
